The nature of this assay: qHTS Assay for Lipid Storage Modulators in Drosophila S3 Cells.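 As to cell number change: cells counted by Cell Tracker Red CMTPX staining in the red channel.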 As to conditions: BODIPY lipid droplet fluorescence, 18-24 h; for cell number change: measured here: cell count max response, cells fed with added oleic acid. The method, boiled down: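 Drosophila S3 cells loaded with oleic acid (400 uM, as added) and compounds at several concentrations; lipid droplets imaged by 488-nm laser-scanning cytometry, 500–530 nm intensity and object ratio to cell channel. Percent activity normalized to 20 uM Triacsin C.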
Background: qHTS replaces the single test concentration by a dilution series.

The mark [1] stands for this setting: measured here: lipid fluorescence (Fed channel) AC50, cells fed with added oleic acid.
The mark [2] stands for this setting: measured here: cell number channel AC50, cells fed with added oleic acid.

Some of the results follow. The main result of the screen is listed elsewhere. These columns were measured beside it and carry no call. The list favours compounds with an active or inconclusive main result. Potencies come from curve fits of mixed quality, noted in brackets.

A word on the AC50: it is the concentration giving half of the maximal activity seen. Read a low AC50 as greater potency.

Consider `O=S(=O)(NCC1OCCc2ccccc21)c1ccccc1` (stereo not given), for which the cell number change was -6.12%. Under setting [1], the half-maximal activity concentration (AC50) is 20.6 µM [rising, single point].

For `CCn1c(SCC(=O)c2ccccc2)nc2ccccc2c1=O`, the AC50 under setting [1] was 1.03 µM [rising, partial curve].

For `Cc1ccc(CNC(=O)CCNC(=O)c2ccco2)cc1`, the cell number change stood at 34.7%. Moreover, the AC50 under setting [2] was 0.0651 µM [rising, full curve, poor fit]. Also, the concentration at half-maximal activity (AC50) under setting [1] was 0.0731 µM [rising, full curve, poor fit].

For `CC(C)OC(=O)CN1C(=O)C(C)(C)Oc2ccc(C(=O)NC(C)(C)C)cc21`, the cell number change came out at 1.29%. Also, the AC50 under setting [1] is 18.4 µM [rising, single point].

Take `COc1ccccc1C(=O)Nc1nnc(-c2ccc3c(c2)CCCC3)o1`: under setting [1], the AC50 is 2.31 µM [rising, partial curve].

`COc1ccc2cc(C(C)C(=O)O)ccc2c1` (stereo not given): the cell number change turned out to be 28.8%. Besides, under setting [1], the AC50 is 25.9 µM [rising, single point].

On to `O=S(=O)(NCC(Nc1ccc(Cl)cc1)c1ccccc1)c1ccccc1` (stereo not given), for which the cell number change is -16.2%.

In the case of `CN(C)CCCOC(=O)c1ccc(Br)cc1`, the AC50 under setting [1] is 0.58 µM [falling, single point].

`CCOC(=O)N1CCC(NC(=O)CCC(=O)N2CC(C)Oc3ccc(Cl)cc32)CC1` (stereo not given): under setting [1], the AC50 is 6.51 µM [rising, partial curve, poor fit].

Regarding `CC(C)c1ccc(NC(=O)CSC(C)c2nc3ccccc3c(=O)[nH]2)cc1` (stereo not given), the cell number change was 14.5%.

With `CCCCC(NC(=O)Cc1c(C)c2cc3c4c(oc3c(C)c2oc1=O)CCCC4)C(=O)O` (stereo not given), the cell number change was found to be 24.1%.

Turning to `O=c1ccc(-c2ccccc2)nn1Cc1ccc(F)cc1`, the cell number change turned out to be 8.97%. In addition, the half-maximal activity concentration (AC50) under setting [1] is 16.4 µM [falling, single point].

`CN(C)c1ncnc2c1NC1=C(S2)C(=NCCCC(=O)O)CC(C)(C)C1`: the cell number change is -14.3%. Moreover, the half-maximal activity concentration (AC50) under setting [1] was 0.164 µM [falling, full curve, poor fit].

Turning to `O=C(O)CCn1c(SCc2cccc3ccccc23)nc2ccccc21`, the cell number change came to 79.6%. The AC50 under setting [1] was 6.51 µM [falling, single point].

With `COC(CC(=O)NNC(=S)Nc1ccc(Cl)cc1)OC`, the concentration at half-maximal activity (AC50) under setting [2] is 0.116 µM [falling, full curve, poor fit] and the half-maximal activity concentration (AC50) under setting [1] was 0.103 µM [falling, full curve, poor fit].

Take `Cc1ccc(C(=O)OCc2cn3ccccc3n2)cc1`: under setting [1], the AC50 is 7.31 µM [falling, partial curve, poor fit].

Turning to `CCOC(=O)N1CCN(C(=O)/C=C/c2cccc([N+](=O)[O-])c2)CC1`, the cell number change worked out at 63.3%. For the same compound, under setting [1], the AC50 was 8.2 µM [rising, partial curve].

On to `O=C(OCC(=O)N1CCCC1)c1ccc(S(=O)(=O)Nc2ccccc2)cc1`, for which the cell number change was 79.4%. Further, the AC50 under setting [2] is 0.731 µM [rising, full curve].

For `CC(=O)Nc1ccc(S(=O)(=O)Nc2nc3ccccc3nc2Nc2cccc(O)c2)cc1`, the AC50 by setting is: under setting [2], 6.51 µM [falling, single point]; under setting [1], 3.66 µM [falling, full curve].

`Cc1ccc(S(=O)(=O)N(C)C)cc1NC(=S)NC(C)CCCC(C)C` (stereo not given): the cell number change was -12.9%. Also, under setting [1], the AC50 is 0.517 µM [falling, full curve, poor fit].

As to `CCc1ccc(-c2cc(C(=O)N3N=C(C(F)F)CC3(O)C(F)F)c3ccccc3n2)cc1` (stereo not given), the cell number change is -82.4%. Moreover, the half-maximal activity concentration (AC50) under setting [2] is 18.4 µM [falling, partial curve]. Further, under setting [1], the AC50 is 29.1 µM [falling, single point].

In the case of `CCCCCCSc1nsc(NC(C)=O)n1`, the cell number change was -10.9%.

`CCOC(=O)C1=C(N)OC2=C(C(=O)CCC2)C1c1cccnc1` (stereo not given): the cell number change was -20.7%.

As for `CN(CC(=O)Nc1ccccc1Cl)C(=O)COC(=O)/C=C/c1cccc(C(F)(F)F)c1`, the cell number change was -24.3%. Also, the AC50 under setting [2] was 0.00517 µM [falling, full curve, poor fit].

On to `Cc1ccc(NC(=O)c2ccccc2-c2cc(C)no2)cc1`, for which the cell number change turned out to be 27.3%. The concentration at half-maximal activity (AC50) under setting [1] is 11.2 µM [rising, single point].

Turning to `Cc1ccc(/C=C/C(=O)N2CCc3ccccc3C2)cc1`, the cell number change is 35.4%. Moreover, under setting [2], the half-maximal activity concentration (AC50) was 14.6 µM [rising, single point]. Also, the AC50 under setting [1] is 14.6 µM [rising, partial curve].

Take `CCOc1ccc(-n2c(-c3ccccc3)c[nH]c2=S)cc1`: the cell number change is 88.9%.

Regarding `CCN(CC)CCNC(=O)c1ccc(Cl)c(S(=O)(=O)N2CCCCCC2)c1`, the cell number change was -0.7%. Moreover, the AC50 under setting [1] was 6.51 µM [rising, full curve].

In the case of `CC(=O)Cc1nsc(NC(=O)c2ccc(COc3ccccc3C)o2)n1`, the cell number change stood at 19.1%. Besides, under setting [1], the AC50 is 0.13 µM [rising, full curve, poor fit].

For `CC(=O)Nc1ccc(Nc2cc(C)c3ccccc3n2)cc1`, the cell number change is -1.69%.

Turning to `O=C1c2ccccc2S(=O)(=O)N1Cc1cccc(S(=O)(=O)N2CCOCC2)c1`, the cell number change is -14.4%. Under setting [1], the AC50 was 16.4 µM [rising, single point].

Regarding `COCCn1c(-c2ccc(F)cc2)nc2oc3cc(OC)ccc3c(=O)c2c1=O`, the AC50 under setting [2] was 3.26 µM [rising, single point].

As to `Cc1scc(C(=O)Nc2ccon2)c1-c1ccccc1`, the cell number change came out at 2.23%.

As to `Cc1csc(NC(=O)C2CCCO2)n1` (stereo not given), the cell number change was 7.47%. The AC50 under setting [2] is 0.651 µM [falling, full curve].

On to `C=CCOc1cccc(C2/C(=C(\O)c3ccc4c(c3)OCCO4)C(=O)C(=O)N2Cc2cccnc2)c1` (stereo not given), for which the cell number change was -2.29%. Moreover, under setting [1], the half-maximal activity concentration (AC50) is 29.1 µM [rising, single point].

Turning to `CC1=C(C(=O)Nc2ccccc2)C(c2ccc(C)o2)N2C(=O)CSC2=N1` (stereo not given), the cell number change is -34%. Further, the AC50 under setting [2] is 32.6 µM [falling, single point].

With `CC(C(=O)NCc1cccs1)n1cccc1` (stereo not given), the cell number change was -21.5%. Moreover, under setting [2], the AC50 is 3.26 µM [falling, full curve, poor fit]. Moreover, under setting [1], the AC50 is 1.84 µM [falling, full curve].

For `Cc1cc(C)n(C(=O)Cn2nc([N+](=O)[O-])c(Br)c2C)n1`, the cell number change was -15.7%. Further, under setting [1], the concentration at half-maximal activity (AC50) is 32.6 µM [falling, single point].

With `CC1CCCCN1S(=O)(=O)c1coc(C(N)=O)c1` (stereo not given), the cell number change amounted to 38.9%. Besides, the AC50 under setting [2] is 29.1 µM [rising, single point].

Consider `Cn1cc(SCC(=O)Nc2ccc3c(c2)OCCO3)c2ccccc21`, for which the cell number change amounted to 29.5%. The concentration at half-maximal activity (AC50) under setting [2] is 2.31 µM [rising, full curve, poor fit].

For `O=C(NCCCN1CCOCC1)c1csc2c1CCCC2`, the cell number change worked out at 13.4%. Besides, the AC50 under setting [1] was 29.1 µM [rising, single point].

On to `O=C(COC(=O)c1c(Cl)cccc1Cl)Nc1cccc(S(=O)(=O)NC2=NCCCCC2)c1`, for which the cell number change was -40.2%. Under setting [1], the half-maximal activity concentration (AC50) was 0.00461 µM [falling, full curve, poor fit].

As for `N#C/C(=C\c1ccc(Sc2ccccc2)o1)c1nc2ccccc2[nH]1`, the cell number change was 30.3%. In addition, under setting [2], the AC50 was 1.84 µM [rising, full curve]. For the same compound, under setting [1], the AC50 was 2.06 µM [rising, partial curve].

On to `COc1ccccc1C(c1nnnn1Cc1ccco1)N1CCN(c2cccc(C)c2C)CC1` (stereo not given), for which the cell number change was -16.5%. For the same compound, the half-maximal activity concentration (AC50) under setting [1] is 32.6 µM [falling, single point].

Turning to `COc1cccc(C(=O)C[n+]2cccc3cc(OC)ccc32)c1`, the cell number change was -13%. The half-maximal activity concentration (AC50) under setting [1] was 0.411 µM [falling, full curve, poor fit].

As for `CCC(C)c1ccc(NC(=O)c2c([N+](=O)[O-])cnn2CC)cc1` (stereo not given), the cell number change is -23.5%.

For the compound `O=C1c2ccccc2CN2C(=O)c3ccccc3CN12`, the cell number change stood at 1.39%. In addition, under setting [1], the AC50 is 2.06 µM [rising, partial curve].

On to `Cc1c(Br)c([N+](=O)[O-])nn1CC(=O)Nc1cccc2nonc12`, for which the cell number change was 2.04%.

Regarding `COc1ccc(C)cc1NC(=O)COC(=O)c1ccccc1SCC(=O)N1CCCC1`, the cell number change was -50%. The AC50 under setting [2] was 3.66 µM [falling, full curve]. Besides, the AC50 under setting [1] is 0.58 µM [falling, single point].

With `Cc1ccc(CS(=O)(=O)CCC(=O)NCCCN2CCCC2=O)cc1`, the cell number change is 39.7%. Besides, under setting [2], the AC50 was 29.1 µM [rising, single point].

Consider `COC(=O)C1=C(C)N(Cc2ccccc2)C(=NCc2cc(OC)c(OC)c(OC)c2)N[C@H]1c1cccc(F)c1`, for which the cell number change was -9.58%.

For the compound `Cc1sc(NC(=O)CN2CCOCC2)nc1-c1ccc2c(c1)CCN2S(=O)(=O)c1ccccc1`, the cell number change is -59.5%. The concentration at half-maximal activity (AC50) under setting [2] is 9.2 µM [falling, partial curve, poor fit]. The AC50 under setting [1] was 20.6 µM [falling, single point].

As for `CCCCNc1c([N+](=O)[O-])c(=O)n(C)c2ccccc12`, the cell number change was determined as 15%. Moreover, under setting [1], the concentration at half-maximal activity (AC50) was 10.3 µM [rising, partial curve, poor fit].

On to `O=C(Nc1cccc(Br)c1)c1ccc(Cl)c(S(=O)(=O)N2CCOCC2)c1`, for which the cell number change is -26.2%. Besides, under setting [1], the concentration at half-maximal activity (AC50) is 7.31 µM [falling, partial curve].

On to `COc1cc(/C=C/c2[nH]c(=O)[nH]c(=O)c2[N+](=O)[O-])cc([N+](=O)[O-])c1O`, for which the cell number change turned out to be 54.1%. Moreover, the concentration at half-maximal activity (AC50) under setting [2] is 0.13 µM [rising, full curve, poor fit].

With `COc1ccc2nc(C)cc(SCC(=O)N/N=C/c3ccccc3)c2c1`, the cell number change was determined as 28.6%. The half-maximal activity concentration (AC50) under setting [1] was 3.26 µM [rising, partial curve].

`CC(C)CNC(=O)CSc1ccc(S(=O)(=O)N(C)C2CCCCC2)cn1`: the cell number change is -50%. Further, the AC50 under setting [2] is 29.1 µM [falling, single point]. Under setting [1], the AC50 was 16.4 µM [rising, single point].

Take `O=C(NCc1ccco1)C1CCC(N2C(=O)c3ccccc3C2=O)CC1` (stereo not given): the cell number change amounted to 28.4%.

Regarding `COc1cccc(CN(C)S(=O)(=O)c2ccc3c(c2)OCCO3)c1`, the cell number change was -25%. The AC50 under setting [2] is 0.116 µM [falling, full curve, poor fit]. Further, the half-maximal activity concentration (AC50) under setting [1] was 29.1 µM [rising, single point].

For the compound `O=C(Cn1nc(C(=O)O)c2ccccc2c1=O)NCc1ccco1`, the cell number change is 13.1%. The concentration at half-maximal activity (AC50) under setting [2] was 0.82 µM [falling, single point]. Further, the AC50 under setting [1] is 0.103 µM [falling, full curve, poor fit].

With `S=C(NCc1ccccc1)Nc1ccncc1`, the cell number change is -52%. Besides, under setting [2], the AC50 was 16.4 µM [falling, partial curve, poor fit]. Also, the half-maximal activity concentration (AC50) under setting [1] is 0.116 µM [falling, full curve, poor fit].

The values above are taken from PubChem BioAssay AID2685 (National Center for Advancing Translational Sciences (NCATS), 2010).
